These results are taken from publication PMC7966362.

These are yes or no findings as the source states them, for the method shown. In cells and extracts the contact can be indirect. Binding calls can cover weak binding; strength is not graded here. Where a sequence is shown, tags or fusion partners need not be part of it.

B1: GFP-tagged AE2 lacking aa 76–347 (protein, UniProt P13808)
chain: MSSAPRRPASGADSLHTPEPESLSPGTPGFPEQEEDELRTLGVERFEEILQEAGSRGGEEPGRSYGEEDFEYHRQDVEEETERWGKPHVASLSFRSLLELRRTLAHGAVLLDLDQQTLPGVAHQVVEQMVISDQIKAEDRANVLRALLLKHSHPSDEKEFSFPRNISAGSLGSLLGHHHAQGTESDPHVTEPLIGGVPETRLEVDRERELPPPAPPAGITRSKSKHELKLLEKIPENAEATVVLVGCVEFLSRPTMAFVRLREAVELDAVLEVPVPVRFLFLLLGPSSANMDYHEIGRSISTLMSDKQFHEAAYLADERDDLLTAINAFLDCSVVLPPSEVQGEELLRSVAHFQRQMLKKREEQGRLLPPGAGLEPKSAQDKALLQMVEVAGAAEDDPLRRTGRPFGGLIRDVRRRYPHYLSDFRDALDPQCLAAVIFIYFAALSPAITFGGLLGEKTKDLIGVSELIMSTALQGVVFCLLGAQPLLVIGFSGPLLVFEEAFFSFCSSNELEYLVGRVWIGFWLVFLALLMVALEGSFLVRFVSRFTQEIFAFLISLIFIYETFYKLIKIFQEHPLHGCSGSNDSEAGSSSSSNMTWATTILVPDNSSASGQSGQEKPRGQPNTALLSLVLMAGTFFIAFFLRKFKNSRFFPGRIRRVIGDFGVPIAILIMVLVDYSIEDTYTQKLSVPSGFSVTAPDKRGWVINPLGEKTPFPVWMMVASLLPAVLVFILIFMETQITTLIISKKERMLQKGSGFHLDLLLIVAMGGICALFGLPWLAAATVRSVTHANALTVMSKAVAPGDKPKIQEVKEQRVTGLLVALLVGLSMVIGDLLRQIPLAVLFGIFLYMGVTSLNGIQFYERLHLLLMPPKHHPDVTYVKKVRTMRMHLFTALQLLCLALLWAVMSTAASLAFPFILILTVPLRMVVLTRIFTEREMKCLDANEAEPVFDECEGVDEYNEMPMPV
B2: GFP-tagged AE2 lacking aa 76–198 (protein, UniProt P13808)
chain: MSSAPRRPASGADSLHTPEPESLSPGTPGFPEQEEDELRTLGVERFEEILQEAGSRGGEEPGRSYGEEDFEYHRQMVAVASATAGGDDGGAAGRPLTKAQPGHRSYNLQERRRIGSMTGVEQALLPRVPTDESEAQTLATADLDLMKSHRFEDVPGVRRHLVRKNAKGSTQAAREGREPGPTPRARPRAPHKPHEVFVELNELLLDKNQEPQWRETARWIKFEEDVEEETERWGKPHVASLSFRSLLELRRTLAHGAVLLDLDQQTLPGVAHQVVEQMVISDQIKAEDRANVLRALLLKHSHPSDEKEFSFPRNISAGSLGSLLGHHHAQGTESDPHVTEPLIGGVPETRLEVDRERELPPPAPPAGITRSKSKHELKLLEKIPENAEATVVLVGCVEFLSRPTMAFVRLREAVELDAVLEVPVPVRFLFLLLGPSSANMDYHEIGRSISTLMSDKQFHEAAYLADERDDLLTAINAFLDCSVVLPPSEVQGEELLRSVAHFQRQMLKKREEQGRLLPPGAGLEPKSAQDKALLQMVEVAGAAEDDPLRRTGRPFGGLIRDVRRRYPHYLSDFRDALDPQCLAAVIFIYFAALSPAITFGGLLGEKTKDLIGVSELIMSTALQGVVFCLLGAQPLLVIGFSGPLLVFEEAFFSFCSSNELEYLVGRVWIGFWLVFLALLMVALEGSFLVRFVSRFTQEIFAFLISLIFIYETFYKLIKIFQEHPLHGCSGSNDSEAGSSSSSNMTWATTILVPDNSSASGQSGQEKPRGQPNTALLSLVLMAGTFFIAFFLRKFKNSRFFPGRIRRVIGDFGVPIAILIMVLVDYSIEDTYTQKLSVPSGFSVTAPDKRGWVINPLGEKTPFPVWMMVASLLPAVLVFILIFMETQITTLIISKKERMLQKGSGFHLDLLLIVAMGGICALFGLPWLAAATVRSVTHANALTVMSKAVAPGDKPKIQEVKEQRVTGLLVALLVGLSMVIGDLLRQIPLAVLFGIFLYMGVTSLNGIQFYERLHLLLMPPKHHPDVTYVKKVRTMRMHLFTALQLLCLALLWAVMSTAASLAFPFILILTVPLRMVVLTRIFTEREMKCLDANEAEPVFDECEGVDEYNEMPMPV
B3: GFP-tagged AE2 lacking aa 76–524 (protein, UniProt P13808)
chain: MSSAPRRPASGADSLHTPEPESLSPGTPGFPEQEEDELRTLGVERFEEILQEAGSRGGEEPGRSYGEEDFEYHRQRPTMAFVRLREAVELDAVLEVPVPVRFLFLLLGPSSANMDYHEIGRSISTLMSDKQFHEAAYLADERDDLLTAINAFLDCSVVLPPSEVQGEELLRSVAHFQRQMLKKREEQGRLLPPGAGLEPKSAQDKALLQMVEVAGAAEDDPLRRTGRPFGGLIRDVRRRYPHYLSDFRDALDPQCLAAVIFIYFAALSPAITFGGLLGEKTKDLIGVSELIMSTALQGVVFCLLGAQPLLVIGFSGPLLVFEEAFFSFCSSNELEYLVGRVWIGFWLVFLALLMVALEGSFLVRFVSRFTQEIFAFLISLIFIYETFYKLIKIFQEHPLHGCSGSNDSEAGSSSSSNMTWATTILVPDNSSASGQSGQEKPRGQPNTALLSLVLMAGTFFIAFFLRKFKNSRFFPGRIRRVIGDFGVPIAILIMVLVDYSIEDTYTQKLSVPSGFSVTAPDKRGWVINPLGEKTPFPVWMMVASLLPAVLVFILIFMETQITTLIISKKERMLQKGSGFHLDLLLIVAMGGICALFGLPWLAAATVRSVTHANALTVMSKAVAPGDKPKIQEVKEQRVTGLLVALLVGLSMVIGDLLRQIPLAVLFGIFLYMGVTSLNGIQFYERLHLLLMPPKHHPDVTYVKKVRTMRMHLFTALQLLCLALLWAVMSTAASLAFPFILILTVPLRMVVLTRIFTEREMKCLDANEAEPVFDECEGVDEYNEMPMPV
B4: GFP-tagged AE2 lacking aa 199–524 (protein, UniProt P13808)
chain: MSSAPRRPASGADSLHTPEPESLSPGTPGFPEQEEDELRTLGVERFEEILQEAGSRGGEEPGRSYGEEDFEYHRQSSHHIHHPLSTHLPPDARRRKTPQGPGRKPRRRPGASPTGETPTIEEGEEDEEEASEAEGFRAPPQQPSPATTPSAVQFFLQEDEGAERKPERTSPSPPTQTPHQEAAPRASKGAQTGTLVEERPTMAFVRLREAVELDAVLEVPVPVRFLFLLLGPSSANMDYHEIGRSISTLMSDKQFHEAAYLADERDDLLTAINAFLDCSVVLPPSEVQGEELLRSVAHFQRQMLKKREEQGRLLPPGAGLEPKSAQDKALLQMVEVAGAAEDDPLRRTGRPFGGLIRDVRRRYPHYLSDFRDALDPQCLAAVIFIYFAALSPAITFGGLLGEKTKDLIGVSELIMSTALQGVVFCLLGAQPLLVIGFSGPLLVFEEAFFSFCSSNELEYLVGRVWIGFWLVFLALLMVALEGSFLVRFVSRFTQEIFAFLISLIFIYETFYKLIKIFQEHPLHGCSGSNDSEAGSSSSSNMTWATTILVPDNSSASGQSGQEKPRGQPNTALLSLVLMAGTFFIAFFLRKFKNSRFFPGRIRRVIGDFGVPIAILIMVLVDYSIEDTYTQKLSVPSGFSVTAPDKRGWVINPLGEKTPFPVWMMVASLLPAVLVFILIFMETQITTLIISKKERMLQKGSGFHLDLLLIVAMGGICALFGLPWLAAATVRSVTHANALTVMSKAVAPGDKPKIQEVKEQRVTGLLVALLVGLSMVIGDLLRQIPLAVLFGIFLYMGVTSLNGIQFYERLHLLLMPPKHHPDVTYVKKVRTMRMHLFTALQLLCLALLWAVMSTAASLAFPFILILTVPLRMVVLTRIFTEREMKCLDANEAEPVFDECEGVDEYNEMPMPV
B5: HA-tagged AE2 wild type (full length, mouse) (protein, UniProt P13808 1-1237)
chain: MSSAPRRPASGADSLHTPEPESLSPGTPGFPEQEEDELRTLGVERFEEILQEAGSRGGEEPGRSYGEEDFEYHRQSSHHIHHPLSTHLPPDARRRKTPQGPGRKPRRRPGASPTGETPTIEEGEEDEEEASEAEGFRAPPQQPSPATTPSAVQFFLQEDEGAERKPERTSPSPPTQTPHQEAAPRASKGAQTGTLVEEMVAVASATAGGDDGGAAGRPLTKAQPGHRSYNLQERRRIGSMTGVEQALLPRVPTDESEAQTLATADLDLMKSHRFEDVPGVRRHLVRKNAKGSTQAAREGREPGPTPRARPRAPHKPHEVFVELNELLLDKNQEPQWRETARWIKFEEDVEEETERWGKPHVASLSFRSLLELRRTLAHGAVLLDLDQQTLPGVAHQVVEQMVISDQIKAEDRANVLRALLLKHSHPSDEKEFSFPRNISAGSLGSLLGHHHAQGTESDPHVTEPLIGGVPETRLEVDRERELPPPAPPAGITRSKSKHELKLLEKIPENAEATVVLVGCVEFLSRPTMAFVRLREAVELDAVLEVPVPVRFLFLLLGPSSANMDYHEIGRSISTLMSDKQFHEAAYLADERDDLLTAINAFLDCSVVLPPSEVQGEELLRSVAHFQRQMLKKREEQGRLLPPGAGLEPKSAQDKALLQMVEVAGAAEDDPLRRTGRPFGGLIRDVRRRYPHYLSDFRDALDPQCLAAVIFIYFAALSPAITFGGLLGEKTKDLIGVSELIMSTALQGVVFCLLGAQPLLVIGFSGPLLVFEEAFFSFCSSNELEYLVGRVWIGFWLVFLALLMVALEGSFLVRFVSRFTQEIFAFLISLIFIYETFYKLIKIFQEHPLHGCSGSNDSEAGSSSSSNMTWATTILVPDNSSASGQSGQEKPRGQPNTALLSLVLMAGTFFIAFFLRKFKNSRFFPGRIRRVIGDFGVPIAILIMVLVDYSIEDTYTQKLSVPSGFSVTAPDKRGWVINPLGEKTPFPVWMMVASLLPAVLVFILIFMETQITTLIISKKERMLQKGSGFHLDLLLIVAMGGICALFGLPWLAAATVRSVTHANALTVMSKAVAPGDKPKIQEVKEQRVTGLLVALLVGLSMVIGDLLRQIPLAVLFGIFLYMGVTSLNGIQFYERLHLLLMPPKHHPDVTYVKKVRTMRMHLFTALQLLCLALLWAVMSTAASLAFPFILILTVPLRMVVLTRIFTEREMKCLDANEAEPVFDECEGVDEYNEMPMPV
B6: GFP-tagged AE2 wild type (protein, UniProt P13808 1-1237)
chain: B5 chain
B7: GFP-tagged AE2 lacking aa 199–347 (protein, UniProt P13808)
chain: MSSAPRRPASGADSLHTPEPESLSPGTPGFPEQEEDELRTLGVERFEEILQEAGSRGGEEPGRSYGEEDFEYHRQSSHHIHHPLSTHLPPDARRRKTPQGPGRKPRRRPGASPTGETPTIEEGEEDEEEASEAEGFRAPPQQPSPATTPSAVQFFLQEDEGAERKPERTSPSPPTQTPHQEAAPRASKGAQTGTLVEEDVEEETERWGKPHVASLSFRSLLELRRTLAHGAVLLDLDQQTLPGVAHQVVEQMVISDQIKAEDRANVLRALLLKHSHPSDEKEFSFPRNISAGSLGSLLGHHHAQGTESDPHVTEPLIGGVPETRLEVDRERELPPPAPPAGITRSKSKHELKLLEKIPENAEATVVLVGCVEFLSRPTMAFVRLREAVELDAVLEVPVPVRFLFLLLGPSSANMDYHEIGRSISTLMSDKQFHEAAYLADERDDLLTAINAFLDCSVVLPPSEVQGEELLRSVAHFQRQMLKKREEQGRLLPPGAGLEPKSAQDKALLQMVEVAGAAEDDPLRRTGRPFGGLIRDVRRRYPHYLSDFRDALDPQCLAAVIFIYFAALSPAITFGGLLGEKTKDLIGVSELIMSTALQGVVFCLLGAQPLLVIGFSGPLLVFEEAFFSFCSSNELEYLVGRVWIGFWLVFLALLMVALEGSFLVRFVSRFTQEIFAFLISLIFIYETFYKLIKIFQEHPLHGCSGSNDSEAGSSSSSNMTWATTILVPDNSSASGQSGQEKPRGQPNTALLSLVLMAGTFFIAFFLRKFKNSRFFPGRIRRVIGDFGVPIAILIMVLVDYSIEDTYTQKLSVPSGFSVTAPDKRGWVINPLGEKTPFPVWMMVASLLPAVLVFILIFMETQITTLIISKKERMLQKGSGFHLDLLLIVAMGGICALFGLPWLAAATVRSVTHANALTVMSKAVAPGDKPKIQEVKEQRVTGLLVALLVGLSMVIGDLLRQIPLAVLFGIFLYMGVTSLNGIQFYERLHLLLMPPKHHPDVTYVKKVRTMRMHLFTALQLLCLALLWAVMSTAASLAFPFILILTVPLRMVVLTRIFTEREMKCLDANEAEPVFDECEGVDEYNEMPMPV

This test addresses FLAG-tagged L-IRBIT wild type (full length). Kind of test: co-IP; HEK 293T cells transfected with tagged constructs; lysis buffer 10 mM HEPES pH 7.4, 100 mM NaCl, 2 mM EDTA, 0.1% Triton X-100, 10 mM sodium fluoride; antibodies and Protein G overnight at 4 °C; immunoblot.
On to B1, for which the binding result is “no binding”. To B2 belongs “binds”; to B3, “no binding”. For the molecule B4, the binding result is reported as “binds”. Consider B5, for which the binding result was “binds”. For B6, the binding result is listed as “binds”. On to B7, for which the binding result was “binds weakly”.
